Where two headings read alike, the source gives them in different places.
Columns and labels:
mouse hearts = assay: Ex vivo model of global ischemia and reperfusion injury, Langendorff-perfused mouse hearts (WT and δV1-1 transgenic); settings: coronary flow 3 mL/minute, n=5
Procedure: Transgenic mice (TG) that selectively express δV1-1 in myocytes were created using α- myosin heavy chain promoter. Hah, H. S., et al., Circ. Res. 91:741-748 (2002). Hemodynamic and morphometric parameters in these transgenic mice, as measured by echocardiographic measurements in vivo, were not different from those measured in wild type mice (WT). Inagaki, K., et al., Circulation 108:869-875 (2003). Mice were heparinized (4000U/kg IP) and anesthetized with sodium pentobarbital (200mg/kg IP). Hearts were perfused with an oxygenated Krebs-Henseleit buffer at 37° C. in a Langendorff system as previously described in Inagaki, K., et al., Circulation 108:869-875 (2003). Hearts were subjected to a 30-minute global ischemia and a 120-minute full reperfusion. […] CPP was measured through a sidearm in the Langendorff system. […]
At the end of the reperfusion, 1 -mm-thick transverse sections of mouse hearts were incubated in triphenyltetrazolium chloride solution (TTC) (1% in phosphate buffer, pH 7.4) at 37° C. for 15 minutes as described in Inagaki, K. et al., Circulation 108:869-875 (2003) to determine the viable myocardium. […] Infarct size was expressed as a percentage of the total area at risk. […] TUNEL-positive nuclei were counted in a total of 1,500 myocytes and 500 of endothelial cells over several random fields.
Data are expressed as mean±SEM. […]

Yorkshire swine = format: in vivo, pig
Procedure: Yorkshire swine (30-45kg) were maintained during the every procedure under anesthesia by inhaled isoflurane (1-2%). A bolus of 300 IU/kg heparin was administered intravenously through the sheath (6 French) placed in the carotid artery. A 10 mm, over-the-wire angioplasty balloon was placed in the left anterior descending artery (LAD) proximal to the first diagonal branch. The balloon was inflated to occlude the LAD for 30 minutes. At the last 1 minute of a 30-minute ischemia, Tat-conjugated δV1-1 (250 ng/kg) or saline was infused at 1 mL/minute for 1 minute through the guide-wire lumen of the balloon catheter (n=9 for each group). Left ventriculogram (LVG) was obtained (40° left anterior oblique projection, 30 frames/sec) to measure cardiac function at 5 time points; before ischemia (baseline), 30 minutes, 24 hours, 5 days, and 10 days after ischemia (n=9 for each group). Ejection fraction (EF) and hypokinetic area were calculated using the software (Plus Plus, Sanders Data System, Calif.) with elimination of frames after premature ventricular contraction beats. Blood pressure and heart rate were measured just before LVG measurements at each time point through the water-filled catheter (Table 1). Coronary flow was measured by a 0.014″ Doppler-tipped guide wire (Flowire, JOMED Inc.) in the LAD, and the unaffected, left circumflex artery (LCx). The wire tip was placed 2 cm distal from the balloon-occluded site in the LAD. After stable baseline flow velocity was recorded, adenosine [endothelium-independent vasodilator; 48 μg; Suryapranata, H., et al., Circulation 89:1109-1117 (1994)] was infused intracoronarily to induce hyperemia (a transient increase in coronary blood flow through microvascular vasodilation) at 5 time points: before ischemia (baseline), 30 minutes, 24 hours, 5 days, and 10 days after ischemia (n=9 for each group). Bradykinin [endothelium-dependent vaodilator, 0.2ml of a 3×10^−6M in saline; Rodriguez-Sinovas, A., et al., J. Appl. Physiol. 95:81-88 (2003)] was also infused intracoronary before ischemia and 24 hours after reperfusion (n=6 for each group). Coronary flow reserve was calculated by dividing the average peak velocity (APV) at hyperemic phase by the baseline APV as described in Suryapranata, H., et al., Circulation 89:1109-1117 (1994). After reperfusion, to determine the area at risk in porcine hearts, LAD ligation was performed at the balloon-occluded site and Evan's Blue (0.0025%) was perfused as previously described in Inagaki, K., et al., Circulation 2304-2307 (2003). All other methods were performed as described in Example 1.

δV1-1: δPKC inhibitor peptide, SEQ ID NO:1 (SFNSYELGSL), amino acids 8-17 of rat δPKC; used Tat-conjugated in the examples (Tat conjugate in examples; listed as Rattus norvegicus)
initial coronary perfusion pressure (mouse hearts; TG+δV1-1 group): 64.6±5.4 mmHg | initial coronary perfusion pressure (mouse hearts; WT+δV1-1 group): 61.0±4.6 mmHg | BP (Dia) (Yorkshire swine; 30 min R): 57 ± 3 mmHg | BP (Sys) (Yorkshire swine; 30 min R): 87 ± 4 mmHg | HR (Yorkshire swine; 30 min R (reperfusion)): 90 ± 3 bpm | BP (Dia) (Yorkshire swine; 24 hr R): 66 ± 13 mmHg | BP (Sys) (Yorkshire swine; 24 hr R): 101 ± 8 mmHg | HR (Yorkshire swine; 24 hr R): 103 ± 11 bpm | BP (Dia) (Yorkshire swine; 5 days R): 68 ± 3 mmHg | BP (Sys) (Yorkshire swine; 5 days R): 97 ± 5 mmHg | HR (Yorkshire swine; 5 days R): 98 ± 6 bpm | BP (Dia) (Yorkshire swine; 10 days R): 60 ± 3 mmHg | BP (Sys) (Yorkshire swine; 10 days R): 94 ± 6 mmHg | HR (Yorkshire swine; 10 days R): 90 ± 7 bpm
